Laboratory results taken from doi:10.1101/2020.02.13.947333.
These are yes or no findings as the source states them, for the method shown. In cells and extracts the contact can be indirect. Some binding calls cover weakened binding; strength is not graded here. For part of these data: Where a sequence is shown, tags or fusion partners need not be part of it.

By UniProt entry, the sequences of proteins in these tests, tags left out.
UniProt P54646: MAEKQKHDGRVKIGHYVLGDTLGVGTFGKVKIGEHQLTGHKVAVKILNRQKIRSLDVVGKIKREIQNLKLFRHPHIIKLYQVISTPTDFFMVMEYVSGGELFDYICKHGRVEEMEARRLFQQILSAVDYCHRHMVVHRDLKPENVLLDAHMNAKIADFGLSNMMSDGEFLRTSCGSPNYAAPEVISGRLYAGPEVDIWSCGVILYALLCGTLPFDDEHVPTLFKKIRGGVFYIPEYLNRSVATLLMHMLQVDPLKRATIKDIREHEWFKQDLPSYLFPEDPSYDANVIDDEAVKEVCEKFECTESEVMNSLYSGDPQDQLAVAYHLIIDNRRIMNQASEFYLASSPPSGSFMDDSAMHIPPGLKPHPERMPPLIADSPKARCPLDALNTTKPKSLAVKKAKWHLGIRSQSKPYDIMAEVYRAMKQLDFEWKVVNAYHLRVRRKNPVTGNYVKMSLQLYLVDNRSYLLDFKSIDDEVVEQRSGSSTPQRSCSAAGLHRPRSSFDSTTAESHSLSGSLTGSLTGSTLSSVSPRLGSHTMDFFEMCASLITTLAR
UniProt Q13131: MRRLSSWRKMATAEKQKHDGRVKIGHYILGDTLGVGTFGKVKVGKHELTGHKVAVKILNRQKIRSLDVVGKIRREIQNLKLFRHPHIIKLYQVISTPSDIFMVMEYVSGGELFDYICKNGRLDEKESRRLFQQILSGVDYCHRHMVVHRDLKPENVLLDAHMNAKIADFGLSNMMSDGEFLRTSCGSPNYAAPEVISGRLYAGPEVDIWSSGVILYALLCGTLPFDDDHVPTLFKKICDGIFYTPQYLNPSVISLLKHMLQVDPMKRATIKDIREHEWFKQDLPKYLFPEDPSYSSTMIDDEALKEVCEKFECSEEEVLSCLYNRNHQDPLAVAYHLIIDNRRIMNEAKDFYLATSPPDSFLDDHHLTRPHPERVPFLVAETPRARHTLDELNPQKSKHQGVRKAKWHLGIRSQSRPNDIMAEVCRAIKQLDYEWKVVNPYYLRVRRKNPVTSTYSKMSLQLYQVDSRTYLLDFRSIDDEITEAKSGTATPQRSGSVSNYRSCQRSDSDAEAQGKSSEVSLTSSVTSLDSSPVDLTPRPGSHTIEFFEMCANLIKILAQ

Tests used:
[1] = target: AMP-activated protein kinase catalytic subunit α2 (AMPKα2) (human (endogenous in SMMC-7721 or HepG2)) (UniProt P54646); assay: co-IP
[2] = target: AMP-activated protein kinase catalytic subunit α1 (AMPKα1) (human (endogenous in SMMC-7721 or HepG2)) (UniProt Q13131); assay: co-IP

Row | binding [1] | binding [2] | Binder
1 | binds | binds | SUMO Specific Peptidase 5 (SENP5) (enzyme, UniProt Q96HI0 1-755) MKKQRKILWRKGIHLAFSEKWNTGFGGFKKFYFHQHLCILKAKLGRPVTWNRQLRHFQGRKKALQIQKTWIKDEPLCAKTKFNVATQNVSTLSSKVKRKDAKHFISSSKTLLRLQAEKLLSSAKNSDHEYCREKNLLKAVTDFPSNSALGQANGHRPRTDPQPSDFPMKFNGESQSPGESGTIVVTLNNHKRKGFCYGCCQGPEHHRNGGPLIPKKFQLNQHRRIKLSPLMMYEKLSMIRFRYRILRSQHFRTKSKVCKLRKAQRSWVQKVTGDHQETRRENGEGGSCSPFPSPEPKDPSCRHQPYFPDMDSSAVVKGTNSHVPDCHTKGSSFLGKELSLDEAFPDQQNGSATNAWDQSSCSSPKWECTELIHDIPLPEHRSNTMFISETEREIMTLGQENQTSSVSDDRVKLSVSGADTSVSSVDGPVSQKAVQNENSYQMEEDGSLKQSILSSELLDHPYCKSPLEAPLVCSGLKLENQVGGGKNSQKASPVDDEQLSVCLSGFLDEVMKKYGSLVPLSEKEVLGRLKDVFNEDFSNRKPFINREITNYRARHQKCNFRIFYNKHMLDMDDLATLDGQNWLNDQVINMYGELIMDAVPDKVHFFNSFFHRQLVTKGYNGVKRWTKKVDLFKKSLLLIPIHLEVHWSLITVTLSNRIISFYDSQGIHFKFCVENIRKYLLTEAREKNRPEFLQGWQTAVTKCIPQQKNDSDCGVFVLQYCKCLALEQPFQFSQEDMPRVRKRIYKELCECRLMD
2 | binds | – | HA-SENP5 (enzyme, UniProt Q96HI0 1-755) MKKQRKILWRKGIHLAFSEKWNTGFGGFKKFYFHQHLCILKAKLGRPVTWNRQLRHFQGRKKALQIQKTWIKDEPLCAKTKFNVATQNVSTLSSKVKRKDAKHFISSSKTLLRLQAEKLLSSAKNSDHEYCREKNLLKAVTDFPSNSALGQANGHRPRTDPQPSDFPMKFNGESQSPGESGTIVVTLNNHKRKGFCYGCCQGPEHHRNGGPLIPKKFQLNQHRRIKLSPLMMYEKLSMIRFRYRILRSQHFRTKSKVCKLRKAQRSWVQKVTGDHQETRRENGEGGSCSPFPSPEPKDPSCRHQPYFPDMDSSAVVKGTNSHVPDCHTKGSSFLGKELSLDEAFPDQQNGSATNAWDQSSCSSPKWECTELIHDIPLPEHRSNTMFISETEREIMTLGQENQTSSVSDDRVKLSVSGADTSVSSVDGPVSQKAVQNENSYQMEEDGSLKQSILSSELLDHPYCKSPLEAPLVCSGLKLENQVGGGKNSQKASPVDDEQLSVCLSGFLDEVMKKYGSLVPLSEKEVLGRLKDVFNEDFSNRKPFINREITNYRARHQKCNFRIFYNKHMLDMDDLATLDGQNWLNDQVINMYGELIMDAVPDKVHFFNSFFHRQLVTKGYNGVKRWTKKVDLFKKSLLLIPIHLEVHWSLITVTLSNRIISFYDSQGIHFKFCVENIRKYLLTEAREKNRPEFLQGWQTAVTKCIPQQKNDSDCGVFVLQYCKCLALEQPFQFSQEDMPRVRKRIYKELCECRLMD
